Laboratory results taken from US9226500B2, “Pesticidal compositions and processes related thereto” (Dow AgroSciences LLC, priority 2012, dated 2016).
The name of at least one read-out is uncertain. Some ranges recur; such a range may be that of the whole group of compounds.

Experiments:
[1] = tested on: Beet Armyworm (Spodoptera exigua); test: Bioassay on Beet Armyworm (BAW), 128-well diet tray assay; type: in vivo; settings: Table 5, Prophetic Compounds Subsequently Exemplified
Protocol: (§1) Certain molecules disclosed in this document were tested against BAW, CEW and CL using procedures described in the following examples. In the reporting of the results, the “BAW & CEW & CL Rating Table” was used (See Table Section).
Bioassays on BAW (Spodoptera exigua)
Bioassays on BAW were conducted using a 128-well diet tray assay. One to five second instar BAW larvae were placed in each well (3 mL) of the diet tray that had been previously filled with 1 mL of artificial diet to which 50 μg/cm^2 of the test compound (dissolved in 50 μL of 90:10 acetone-water mixture) had been applied (to each of eight wells) and then allowed to dry. Trays were covered with a clear self-adhesive cover, and held at 25° C., 14:10 light-dark for five to seven days. Percent mortality was recorded for the larvae in each well; activity in the eight wells was then averaged. The results are indicated in the tables entitled “Table 3: Assay Results Part 1” and “Table 4: Assay Results Part 2” (See Table Section).

[2] = tested on: Cabbage Looper (Trichoplusia ni); test: Bioassay on Cabbage Looper (CL), 128-well diet tray assay; type: in vivo; settings: Table 5, Prophetic Compounds Subsequently Exemplified
Protocol: as §1
Bioassays on CL (Trichoplusia ni)
Bioassays on CL were conducted using a 128-well diet tray assay. One to five second instar CL larvae were placed in each well (3 mL) of the diet tray that had been previously filled with 1 mL of artificial diet to which 50 μg/cm^2 of the test compound (dissolved in 50 μL of 90:10 acetone-water mixture) had been applied (to each of eight wells) and then allowed to dry. Trays were covered with a clear self-adhesive cover, and held at 25° C., 14:10 light-dark for five to seven days. Percent mortality was recorded for the larvae in each well; activity in the eight wells was then averaged.
“Table 4: Assay Results Part 2” (See Table Section).

Row | Structure (SMILES) | BAW Rating [1] | CL Rating [2]
1 | O=C(CNC(=O)c1ccc(/C=C/C(c2ccc(Cl)c(Cl)c2)C(F)(F)F)cc1)NCC(F)(F)F (centres unmarked) [Compound P1781] | A (50-100) | A (50-100)
2 | C[C@@H](NC(=O)c1ccc(/C=C/C(c2ccc(Cl)c(Cl)c2)C(F)(F)F)cc1Br)C(=O)NCC(F)(F)F (some centres unmarked) [Compound P1806] | A (50-100) | A (50-100)
3 | C[C@@H](NC(=O)c1ccc(/C=C/C(c2ccc(Cl)c(Cl)c2)C(F)(F)F)cc1C(F)(F)F)C(=O)NCC(F)(F)F (some centres unmarked) [Compound P1808] | A (50-100) | A (50-100)
4 | O=C(CNC(=O)c1ccc(/C=C/C(c2cc(Cl)c(F)c(Cl)c2)C(F)(F)F)cc1C(F)(F)F)NCC(F)(F)F (centres unmarked) [Compound P1862] | A (50-100) | A (50-100)
5 | O=C(NCC(=S)NCC(F)(F)F)c1ccc(/C=C/C(c2cc(Cl)c(F)c(Cl)c2)C(F)(F)F)cc1Br (centres unmarked) [Compound P1864] | A (50-100) | A (50-100)
6 | O=C(NCC(=S)NCC(F)(F)F)c1ccc(/C=C/C(c2cc(Cl)c(F)c(Cl)c2)C(F)(F)F)cc1C(F)(F)F (centres unmarked) [Compound P1866] | A (50-100) | A (50-100)
7 | O=C(CNC(=O)c1ccc(/C=C/C(c2cc(Br)cc(Br)c2)C(F)(F)F)cc1Cl)NCC(F)(F)F (centres unmarked) [Compound P1970] | A (50-100) | A (50-100)
8 | O=C(CNC(=O)c1ccc(/C=C/C(c2cc(Br)cc(Br)c2)C(F)(F)F)cc1C(F)(F)F)NCC(F)(F)F (centres unmarked) [Compound P1971] | A (50-100) | A (50-100)
9 | Cc1cc(/C=C/C(c2cc(Br)cc(Br)c2)C(F)(F)F)ccc1C(=O)NCC(=O)NCC(F)(F)F (centres unmarked) [Compound P1972] | A (50-100) | A (50-100)
10 | CC(NC(=O)CNC(=O)c1ccc(/C=C/C(c2cc(Br)cc(Br)c2)C(F)(F)F)cc1Br)C(F)(F)F (centres unmarked) [Compound P2009] | A (50-100) | A (50-100)
11 | CC(NC(=O)CNC(=O)c1ccc(/C=C/C(c2cc(Br)cc(Br)c2)C(F)(F)F)cc1Cl)C(F)(F)F (centres unmarked) [Compound P2010] | A (50-100) | A (50-100)
12 | CC(NC(=O)CNC(=O)c1ccc(/C=C/C(c2cc(Br)cc(Br)c2)C(F)(F)F)cc1C(F)(F)F)C(F)(F)F (centres unmarked) [Compound P2011] | A (50-100) | A (50-100)
13 | Cc1cc(/C=C/C(c2cc(Br)cc(Br)c2)C(F)(F)F)ccc1C(=O)NCC(=O)NC(C)C(F)(F)F (centres unmarked) [Compound P2012] | A (50-100) | A (50-100)
14 | C[C@@H](NC(=O)c1ccc(/C=C/C(c2cc(Br)cc(Br)c2)C(F)(F)F)cc1Br)C(=O)NCC(F)F (some centres unmarked) [Compound P2036] | A (50-100) | A (50-100)
15 | C[C@@H](NC(=O)c1ccc(/C=C/C(c2cc(Br)cc(Br)c2)C(F)(F)F)cc1C(F)(F)F)C(=O)NCC(F)F (some centres unmarked) [Compound P2038] | A (50-100) | A (50-100)
16 | C[C@@H](NC(=O)c1ccc(/C=C/C(c2cc(Br)cc(Br)c2)C(F)(F)F)cc1Br)C(=O)NCCF (some centres unmarked) [Compound P2041] | A (50-100) | A (50-100)
17 | C[C@@H](NC(=O)c1ccc(/C=C/C(c2cc(Br)cc(Br)c2)C(F)(F)F)cc1C(F)(F)F)C(=O)NCCF (some centres unmarked) [Compound P2043] | A (50-100) | A (50-100)
18 | C[C@@H](NC(=O)c1ccc(/C=C/C(c2cc(Br)cc(Br)c2)C(F)(F)F)cc1Br)C(=O)NCCC(F)(F)F (some centres unmarked) [Compound P2056] | A (50-100) | A (50-100)
19 | C[C@@H](NC(=O)c1ccc(/C=C/C(c2cc(Br)cc(Br)c2)C(F)(F)F)cc1C(F)(F)F)C(=O)NCCC(F)(F)F (some centres unmarked) [Compound P2058] | A (50-100) | A (50-100)
